Test results as given in PMC7291193.
No constants are given. Whether binding was seen depends on the method and setting. Binding seen in cells or lysates may run through a third protein. Some results given as binding are weak or reduced against the parent protein; the word gives no strength.

Chains of the proteins cited; added tags and fusions are not shown.
UniProt P03101: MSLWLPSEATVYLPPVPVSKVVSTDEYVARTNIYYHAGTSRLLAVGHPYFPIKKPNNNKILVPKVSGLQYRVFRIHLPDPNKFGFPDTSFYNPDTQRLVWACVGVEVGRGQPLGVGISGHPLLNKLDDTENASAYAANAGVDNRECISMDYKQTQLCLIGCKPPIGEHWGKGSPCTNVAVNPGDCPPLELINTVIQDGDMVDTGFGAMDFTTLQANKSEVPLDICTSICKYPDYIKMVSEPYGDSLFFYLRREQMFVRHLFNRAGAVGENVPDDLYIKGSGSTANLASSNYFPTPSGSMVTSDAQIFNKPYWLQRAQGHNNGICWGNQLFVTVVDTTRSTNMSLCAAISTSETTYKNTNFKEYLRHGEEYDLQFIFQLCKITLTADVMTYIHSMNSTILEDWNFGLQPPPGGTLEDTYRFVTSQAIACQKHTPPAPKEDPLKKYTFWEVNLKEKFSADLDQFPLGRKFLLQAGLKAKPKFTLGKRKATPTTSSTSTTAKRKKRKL

Biological target: HPV L1 protein (major capsid protein L1 of HPV type 16) (human papillomavirus type 16) (UniProt P03101)
Assay: co-IP; Capturem IP & Co-IP Kit; 600 ug of sperm cell lysate of HPV16 infected subjects incubated with anti-HPV Type 16 L1 monoclonal antibody (CAMVIR-1) 20 min at room temperature, spin column, elution; immunoblot with anti-AQP8 and anti-L1

B1: Aquaporin-8 (protein, UniProt O94778 1-261)
chain: MSGEIAMCEPEFGNDKAREPSVGGRWRVSWYERFVQPCLVELLGSALFIFIGCLSVIENGTDTGLLQPALAHGLALGLVIATLGNISGGHFNPAVSLAAMLIGGLNLVMLLPYWVSQLLGGMLGAALAKAVSPEERFWNASGAAFVTVQEQGQVAGALVAEIILTTLLALAVCMGAINEKTKGPLAPFSIGFAVTVDILAGGPVSGGCMNPARAFGPAVVANHWNFHWIYWLGPLLAGLLVGLLIRCFIGDGKTRLILKAR
binding: binds
